The supplement of paper PMC3334620
Over roughly 33,000 sequences, “E-score (-0.5 to 0.5)” has its median near -0.0034; the highest 2% begin near 0.25. Some of the results follow.

The sequences below were run against T1, Yap3 (UniProt P38749) (assay: PBM E-score (8-mer binding enrichment) (E-score (-0.5 to 0.5)); higher = stronger / more preferred TF binding). Conditions: protein concentration: 100 nM; construct: GST-full length.
T1 sequence: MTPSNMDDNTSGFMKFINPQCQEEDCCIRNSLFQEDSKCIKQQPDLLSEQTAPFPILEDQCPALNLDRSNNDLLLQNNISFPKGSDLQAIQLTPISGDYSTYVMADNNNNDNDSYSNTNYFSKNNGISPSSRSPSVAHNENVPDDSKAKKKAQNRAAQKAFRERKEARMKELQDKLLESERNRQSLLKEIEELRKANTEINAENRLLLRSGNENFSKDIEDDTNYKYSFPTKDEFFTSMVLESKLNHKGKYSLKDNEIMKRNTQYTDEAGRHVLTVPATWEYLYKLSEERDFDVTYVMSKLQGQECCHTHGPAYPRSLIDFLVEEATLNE
Outline: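 Bound GST-tagged yeast transcription factors, applied at about 100-200 nM to double-stranded universal all-10-mer Agilent arrays, were detected with fluorescent anti-GST. Scans were normalised with masliner. A modified Wilcoxon-Mann-Whitney statistic, the E-score, was assigned to each ungapped eight-base word pooled with its reverse complement by the Universal PBM Analysis Suite.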

Sequence	PBM E-score
CTCGCTGA	-0.0804
CAAAGGTA	-0.162
TGTTCCAA	-0.00789
GGCACAAC	-0.102
CGAGCTCC	-0.15
GCATGAGA	0.0543
CCAACTCA	-0.0415
ACATTGAC	0.0696
GTTCCTAA	-0.0238
ACTACTGC	-0.0865
CCTCACAC	-0.0974
AGTATACC	0.153
GACTAGTC	-0.203
CTGCCCTC	-0.233
CAGAACCC	-0.169
GTACCCAA	-0.0653
CACATCTA	0.138
AGAACCGA	-0.121
GCGACCAC	-0.0579
AAGCTGGC	-0.132
CAGGGAAA	0.00675
GCATTTCA	0.15
AATCCGAA	-0.0138
ATCCGTGG	-0.106
GATATGGA	0.263

Sequence	PBM E-score
AGGTTCGG	-0.158
ATACATTA	0.266
AGGCGACA	-0.224
AATGTCCC	-0.00806
AGACCGGC	-0.291
AGAACGGC	0.0349
CCATGAAC	0.0278
TATGGACA	0.0793
ACGTTCGC	-0.135
ACTGGCTC	-0.178
AATCAACG	0.109
AGGTCCCC	-0.242
AGTCGTGC	-0.239
CAGGTGCG	0.015
ACTCAATC	0.077
TAGTTAGA	-0.00451
AGTTGCAC	-0.129
ATGTTAGC	0.0139
GATTCAGC	-0.0847
GCGAGGGA	-0.092
ACATTTCC	0.109
CCAAATCC	-0.0453
ACATGTTG	0.13
CCACATCC	-0.123
CAGACTGG	-0.17

Sequence	PBM E-score
CTATCCGA	0.0195
GCCTAGAA	-0.0144
TCCTATAA	0.133
CAATAATG	0.00616
GAAGACAA	0.131
TGAAGAAA	-0.0319
ATGAACGC	0.144
GTCGAAAC	-0.0355
GGTTGTAC	-0.11
CAAAAATA	0.332
CACTTCGA	0.035
CTACAGGC	-0.161
ATAGCGTC	0.0478
GCCACGCC	-0.175
AACACCTT	0.0653
TAGCCACA	0.0597
TCTTCCAA	-0.00597
GACGAGGC	-0.156
ATAGGTTA	0.0929
GAATACTA	0.232
GACGTTCC	-0.0407
AGTAGACT	0.0177
AATTCTAA	0.135
CTTGTTGA	0.0519
ACATTGCT	0.00432

Sequence	PBM E-score
CGGTCCTA	-0.253
TGGGGAAA	0.0416
CATAAAAA	0.186
CCTAAATC	0.097
GGATTCAA	0.0633
CAGCATAA	0.118
AAACATCG	-0.149
AATCGGCT	0.0793
GCCCATCC	-0.281
CGGCGGCC	-0.123
TACTAACA	0.294
CATTGTGC	0.137
CAGGGCAG	-0.117
AGTATTCG	0.0991
CTTATTAA	0.339
CAAAGTTC	0.0509
CACAGATG	-0.142
GGTACACA	0.00705
CTAGGTTC	-0.106
CGTGCGGA	-0.0214
AATCCGTG	-0.113
CAGGAGAA	-0.00803
ACATTCTC	0.104
ACCCAGAC	-0.175
CCTGTGAG	-0.0856

Sequence	PBM E-score
CCTTATCA	0.187
GAACCGGC	-0.127
ACACCGCG	-0.178
ATCTGTGG	-0.191
GCAGCAGA	-0.0581
GCGTTACA	0.0179
GAAAAAGA	0.252
GCAAAAAA	0.202
ATTCCGGA	0.136
GTTTTCTA	0.183
ATAATCCG	0.17
AGTACTTC	0.23
GCCCTGTA	0.054
ATTAAGTG	0.156
GGTTCAAA	-0.0457
CGCACCAG	-0.0528
AGAACCAG	0.0965
CGTATCCC	-0.126
CAGGAATC	0.09
TATAATGA	0.136
ATTTCATC	0.269
GCGCGGGA	-0.0479
GCGCCACC	-0.165
CAGACGCC	-0.132
AGGCGAAG	-0.078

4 entries picked at random from the list so far:
Sequence	PBM E-score
GAAAAAGA	0.252
ATTAAGTG	0.156
CGTATCCC	-0.126
ATAATCCG	0.17

Carrying on.

Sequence	PBM E-score
CCGCCCAA	-0.109
GCGTTCCA	0.00484
ATTTGCAG	0.0193
GCATATTA	0.215
GCGTTTCC	0.0968
AGTCGTAG	-0.143
CAGAGGAG	-0.227
CAACGCTC	-0.00757
CCTTGGCC	-0.384
CCTTTCAC	0.0459
ATTGGCCG	-0.00271
GAGTTCTA	-0.0854
ATGATTCG	-0.0168
CTACCTTA	0.0241
TACAGGAA	0.167
GTACGTCA	0.267
AGCGTGAT	0.106
GACCGCAA	-0.111
GCGGTTCA	-0.0626
GCAACCTA	-0.0401
CCAGCACG	-0.128
CCCCCAAG	-0.253
AGCCGAAC	-0.105
ACATTCCT	0.0481
CATCTCTA	0.0212

Sequence	PBM E-score
AAGAACCG	0.139
ACGAACAG	0.0431
ATAAACAC	0.1
GCCAAAAA	0.0735
TGGGACAA	0.125
CGCCGATC	-0.0265
ACTTCTAT	0.108
CCTCCAGG	-0.401
AACTACAT	0.106
ATGCACGA	-0.0391
CACAAACC	0.0265
CTCAGGAC	-0.0963
ACATGGAG	-0.236
AGCATCAC	-0.0683
ATAATTAA	0.259
ACAAGTGT	-0.00448
GAGCTCCA	-0.179
GCATGAAA	0.176
CTGGTATC	-0.0149
CGCCCTGA	-0.0284
ACGATCTG	0.0119
AGCAGGGC	-0.158
